These results are taken from patent US20170355770A1 (ASKGENE PHARMA, published 2017).

Assay [1] concerns the target cynomolgus PD-L1-his (cynomolgus) (UniProt G7PSE7). The experiment in a line: ELISA, coated cynomolgus PD-L1-his. (In general: An ELISA detects its analyte on a solid surface through an enzyme-linked reagent.)
Assay [2] has the same target. The experiment in a line: ELISA on coated cynomolgus PD-L1-his, purified chimeric antibody [panel Cynomolgus PDL1-his ELISA].

Residue numbers refer to the chain shown, from its start. No constants are given. Whether binding was seen depends on the method and setting. Some entries that bind do so weakly or less than the wild type.

B1: chimeric anti-PD-L1 antibody 111H2 (antibody, V domains shown)
VH: QEQLVESGGGLVQPGGTLKLSCKGSGFDLSSNAMCWVRQAPGKGLEWIGCIVYGNCYYASWVNGRFTISSDNAQSSVDLQLNSLTAADTATYFCARDPAGSSVYTGGFNIWGPGTLVTVSS
VL: AIDMTQTPSPVSAAVGDTVTINCQASENIYSFLAWYQQKPGHSPKPLIYFASKLASGVPSRFKGSGSGTQFTLTISDVQCDDAATYYCQQTVSYKNADTAFGGGTKVVVVR
notes: also called chimeric anti-PD-L1 111H2 antibody
For B1, in assay [1], the binding entry is “binds”.

B2: chimeric anti-PD-L1 antibody 115C1 (antibody, V domains shown)
VH: CQSVKESEGGLFKPTDTLTLTCTVSGFSLSSVAVSWVRQAPGKGLEWIGTISYTGNTYYASWAKSRSTITRNTNENTVTLKMPSLTVADTATYFCAKEILYYGMDFWGPGTLVTVSS
VL: DIVMTQTPSSVSAAVGGTVTINCQASQSISSYLAWYQQKPGQPPKLLIYGASNLESGVPSRFKGSGSGTDFTLTISDLECADAATYYCQSTYGSTSTSDYGNAFGGGTKVVVVR
With B2, in assay [1], the binding entry is “binds”.

B3: chimeric anti-PD-L1 antibody 116F3 (antibody, V domains shown)
VH: CQSVKESEGGLFKPTDTLTLTCTVSGIDLSSISIGWVRQAPGNGLEWIGTISDSGSAYYASWAKSRSTITRNTNENTVTLKMTSLTAADTASYFCAKEILYYGMDLWGPGTLVTVSS
VL: DVVMTQTPASVSGAVGGTVTIKCQASEDIESYLAWYQQKPGQPPKLLIYAASNLEPGVPSRFKGSRSGTEYTLTITDLECDDAATYHCQATYGSTSSSDYGNAFGGGTKVVVVR
On to B3, for which the binding entry in assay [2] and in assay [1] was “binds” each time.

B4: chimeric anti-PD-L1 antibody 110H8 (antibody, V domains shown)
VH: B3 VH with I32V, G35S, S52G, D53A, S65R, E75L
VL: B3 VL with S12E, G13A, E27Q, D28S, E30S, S31N, P43R, R66G, A90C
Regarding B4, in assay [1], the binding entry is reported as “binds”.

B5: chimeric anti-PD-L1 antibody 115E2 (antibody, V domains shown)
VH: B3 VH with T15M, S30G, I32V, S33A, G35S, N43K, S52G, D53S, E75L, L106R
VL: B2 VL with I2V, S9A, S12E, A14S, G50A, S56P, D70E, S90A, T97S
For B5, in assay [1], the binding entry is on record as “binds”.

B6: chimeric anti-PD-L1 antibody 110B4 (antibody, V domains shown)
VH: B3 VH with T23K, G35S, T50V, S52N, D53S, S54Y, S56N, A57T, S92T
VL: DVVMTQTPASVEAAVGGTVTIKCQASQSISSYFSWYQQKPGQRPKLLIYDASNLESGVPSRFKGSRSGTEYTLTISDLEWDDAATYYCQCTYGSTSSSNYGNNFGGGTKVVVVR
Consider B6, for which, in assay [1], the binding result is on record as “binds”.

B7: chimeric anti-PD-L1 antibody 113F1 (antibody, V domains shown)
VH: B3 VH with S33A, G35S, S52N, D53S, S54Y, A57T, K64Q, L106V
VL: B2 VL with I2V, S9A, S12E, N22K, G50A, D70E, F71Y, A81D, S94T
Regarding B7, the binding result in assay [2] and in assay [1] was “binds” in each case.
